# Patent US12187773B2, “Modified GIP peptide analogues” (Antag Therapeutics ApS, priority 2018, dated 2025)
# At least one structure is not confirmed: it was looked up by name or label, or the drawing left a doubt. Where a SMILES comes first, the peptide text is derived from it. The star is where a group is joined. C16 diacid = O=C(O)CCCCCCCCCCCCCCC(=O)*
# Columns and labels:
# [1] = biological target: T1, human GIP receptor (Homo sapiens, UniProt P48546); experiment: cAMP accumulation, antagonism (DiscoveRx HitHunter cAMP XS assay); assay type: cell-based; design: host or cells: COS-7 (transient, calcium phosphate; pCMV-Script vector); settings: Examples 1 and 2; values of Tables 1B and 2; read-out: IC50-value (GIPR antagonism)
# T1 sequence (P48546 22-466): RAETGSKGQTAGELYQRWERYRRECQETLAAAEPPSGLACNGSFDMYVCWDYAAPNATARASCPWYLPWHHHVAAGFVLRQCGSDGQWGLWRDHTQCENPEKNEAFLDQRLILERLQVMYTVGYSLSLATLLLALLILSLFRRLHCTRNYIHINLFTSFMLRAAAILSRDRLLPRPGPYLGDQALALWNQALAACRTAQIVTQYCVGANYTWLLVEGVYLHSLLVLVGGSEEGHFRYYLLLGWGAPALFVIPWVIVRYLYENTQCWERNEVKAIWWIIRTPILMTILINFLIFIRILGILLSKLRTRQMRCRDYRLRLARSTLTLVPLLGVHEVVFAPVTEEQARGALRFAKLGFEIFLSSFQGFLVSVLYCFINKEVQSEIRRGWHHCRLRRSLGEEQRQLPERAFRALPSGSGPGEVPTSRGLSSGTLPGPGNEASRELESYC
# Experimental: Transient transfected COS-7 cells expressing the human GIP receptor were seeded in white 96-well plates with a density of 3.5*10^4/well. The day after, the cells were washed twice with Hepes buffered saline (HBS) buffer and incubated with HBS and 1 mM 3-isobutyl-1-methylxanthine (IBMX) for 30 min at 37° C. To test for agonistic properties, ligands were added and incubated for 30 min at 37° C. In order to test for antagonistic properties, the cells were preincubated with the antagonists for 10 min prior to the addition of the agonist and subsequent incubated for 20 additional min. The HitHunter™ cAMP XS assay (DiscoveRx) was carried out according to the manufacturer's instructions.
# In order to develop a GIP receptor antagonist with improved antagonistic properties, individual amino acid substitutions were conducted on GIP(3-30)NH2 and in particular at positions: 16, 18, 30 or 3, 16, 18, 30. The obtained peptides were lipidated at position 18 directly or via a linker. Both the agonistic and antagonistic profiles of the compounds were tested in cAMP accumulation experiments done in transiently transfected COS-7 cells expressing the human GIP receptor. To investigate if these mutated analogues still retained their antagonistic properties, their ability to inhibit a GIP-mediated cAMP response corresponding to 50-80% of maximum activation was examined.
# [2] = biological target: T1, human GIP receptor; experiment: cAMP antagonism (CisBio cAMP Dynamic 2 HTRF assay); assay type: cell-based; design: pCMV-Script vector; settings: Table 1C, HEK-293 cells, agonist GIP1-42 at EC50
# Experimental: The in vitro functional activity of compounds towards human GIP receptor can also be determined in HEK-293 cells transiently expressing the receptor. On the day of the assay, cells were resuspended in HBSS buffer (Gibco, 14025-50) supplemented with 20 mM HEPES (Gibco, 15630-106), 0,1% Pluronic F-68 (Gibco, 24040-032) and 0,1% casein (Sigma, C4765), and plated in 384-well plates at a density of 5000 cells/well. The GIP peptide analogues of the present disclosure were diluted in HBSS buffer supplemented with 20 mM HEPES, 0,1% pluronic, 0,1% casein and 500 uM IBMX. […] The resulting decrease in intracellular cAMP was quantitatively determined using the CisBio cAMP Dynamic 2 HTRF Assay Kit. The assay is based on a competition between native cAMP produced by cells and cAMP labeled with the dye d2 for binding to a cryptate labeled antibody. The specific signal (i.e. energy transfer signal) is inversely proportional to the concentration of cAMP in the sample.
# The cAMP-d2 conjugate and the antibody anti-cAMP-Cryptate, both diluted in lysis buffer provided in the kit, were added to the cells according to the manufacturer's protocol. The resulting competitive assay was incubated for 60 minutes at room temperature, and the signal was detected by using a PerkinElmer Envision® instrument with excitation at 320 nm and emission at 665 nm and 620 nm. […]
Structure (SMILES),IC50 [1],IC50 [2]
CC[C@H](C)[C@H](NC(=O)[C@H](CO)NC(=O)[C@H](Cc1ccc(O)cc1)NC(=O)[C@H](CCC(=O)O)NC(=O)[C@H](CO)NC(=O)[C@@H](NC(=O)[C@H](Cc1ccccc1)NC(=O)[C@@H](NC(=O)CNC(=O)[C@@H](N)CCC(=O)O)[C@@H](C)O)[C@@H](C)CC)C(=O)N[C@@H](C)C(=O)N[C@@H](CCSC)C(=O)N[C@@H](CCC(=O)O)C(=O)N[C@@H](CCCCN)C(=O)N[C@H](C(=O)N[C@@H](CCCCNC(=O)CCCCCCCCCCCCCCC(=O)O)C(=O)N[C@@H](CCC(N)=O)C(=O)N[C@@H](CCC(N)=O)C(=O)N[C@@H](CCC(=O)O)C(=O)N[C@@H](Cc1ccccc1)C(=O)N[C@H](C(=O)N[C@@H](CCC(N)=O)C(=O)N[C@@H](Cc1c[nH]c2ccccc12)C(=O)N[C@@H](CC(C)C)C(=O)N[C@@H](CC(C)C)C(=O)N[C@@H](C)C(=O)N[C@@H](CCC(N)=O)C(=O)N[C@@H](CCCCN)C(N)=O)C(C)C)[C@@H](C)CC [AT482] (H-EGTFISEYSIAMEKIK(C16 diacid)QQEFVQWLLAQK-NH2; N-terminus assumed),1 nM,
CC[C@H](C)[C@H](NC(=O)[C@H](Cc1ccccc1)NC(=O)[C@H](C)NC(=O)CNC(=O)[C@@H](N)CCC(=O)O)C(=O)N[C@@H](CO)C(=O)N[C@@H](CC(=O)O)C(=O)N[C@@H](Cc1ccc(O)cc1)C(=O)N[C@@H](C)C(=O)N[C@@H](C)C(=O)N[C@@H](C)C(=O)N[C@@H](CCSC)C(=O)N[C@@H](CC(=O)O)C(=O)N[C@@H](CCCCN)C(=O)N[C@H](C(=O)N[C@@H](CCCCNC(=O)CCCCCCCCCCCCCCC(=O)O)C(=O)N[C@@H](CCC(N)=O)C(=O)N[C@@H](CCC(N)=O)C(=O)N[C@@H](CC(=O)O)C(=O)N[C@@H](Cc1ccccc1)C(=O)N[C@H](C(=O)N[C@@H](C)C(=O)N[C@@H](Cc1c[nH]c2ccccc12)C(=O)N[C@@H](CC(C)C)C(=O)N[C@@H](CC(C)C)C(=O)N[C@@H](C)C(=O)N[C@@H](CCC(N)=O)C(=O)N[C@@H](CCCCN)C(N)=O)C(C)C)[C@@H](C)CC [AT483] (H-EGAFISDYAAAMDKIK(C16 diacid)QQDFVAWLLAQK-NH2; N-terminus assumed),3 nM,39.8 nM
